# Source: the supplement of paper PMC10373366
# The other results are listed elsewhere or left out. Single values are uncertain, as repeats are few or missing.
# Test system: patient-derived ovarian cancer cells (PDC)
# Experiment: cell growth inhibition ratio vs untreated control (CCK8); higher = stronger inhibition of cell viability
# Conditions: 10 µM; 48 h
# Procedure: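 Natural product library (Topscience) screened at 10 µM final concentration for 48 h on ovarian cancer A2780 cells and patient-derived ovarian cancer cells (PDC) in 96-well plates; viability read by CCK8 and reported as inhibition ratio (%) relative to untreated control. Single-dose primary screen.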
row,Structure (SMILES),cell growth inhibition ratio
1,COc1cc(CCC(=O)O)ccc1O [Hydroferulic acid],26.6%
2,C[C@H]1CC[C@@]2(OC1)O[C@H]1C[C@H]3[C@@H]4CC[C@@H]5C[C@@H](O[C@@H]6O[C@H](CO)[C@H](O)[C@H](O)[C@H]6O[C@@H]6O[C@H](CO)[C@@H](O)[C@H](O)[C@H]6O)CC[C@]5(C)[C@H]4CC[C@]3(C)[C@H]1[C@@H]2C [Timosaponin AIII],87.6%
3,O=C(O)CCc1ccc(O)cc1 [Phloretic acid],-5.19%
4,COC(=O)[C@@]1(C)CC[C@]2(C(=O)O)CC[C@]3(C)C(=CC[C@@H]4[C@@]5(C)C[C@H](O)[C@H](O[C@@H]6OC[C@@H](O[C@@H]7O[C@H](CO)[C@@H](O)[C@H](O)[C@H]7O)[C@H](O)[C@H]6O)[C@@](C)(CO)[C@@H]5CC[C@]43C)[C@@H]2C1 [Esculentoside A],3.72%
5,Cc1cc2nc3c(=O)[nH]c(=O)nc-3n(C[C@H](O)[C@H](O)[C@H](O)COP(=O)(O)O)c2cc1C [Flavin mononucleotide],-9.28%
6,CC1(C)OC(=O)C=C[C@]2(C)[C@H]3CC[C@@]4(C)[C@H](c5ccoc5)OC(=O)[C@H]5O[C@]54[C@]3(C)C(=O)C[C@@H]12 [Obacunone],2.41%
7,CC(C)CCCC(C)C1CCC2C3CCC4CC(O)CCC4(C)C3CCC12C (stereo not drawn) [Dihydrocholesterol],11.9%
8,C[C@H]1[C@H](C)CC[C@]2(C(=O)O[C@@H]3O[C@H](CO[C@@H]4O[C@H](CO)[C@@H](O[C@@H]5O[C@H](C)[C@H](O)[C@@H](O)[C@H]5O)[C@H](O)[C@H]4O)[C@@H](O)[C@H](O)[C@H]3O)CC[C@]3(C)C(=CC[C@@H]4[C@@]5(C)C[C@@H](O)[C@H](O)[C@@](C)(CO)[C@@H]5CC[C@]43C)[C@H]12 [Asiaticoside],6.07%
9,Cc1cc(O)c([C@@H]2c3c(O)cc(O)cc3O[C@H](c3ccc(O)c(O)c3)[C@H]2O)c2c1C[C@@](C)(O)[C@@H](c1ccc(O)c(O)c1)O2 [Grape Seed Extract],69.9%
10,CC1(C)[C@@H](O[C@H]2O[C@H](C(=O)O)[C@@H](O)[C@H](O)[C@H]2O[C@@H]2O[C@H](C(=O)O)[C@@H](O)[C@H](O)[C@H]2O)CC[C@]2(C)[C@H]3C(=O)C=C4[C@@H]5C[C@@](C)(C(=O)O)CC[C@]5(C)CC[C@@]4(C)[C@]3(C)CC[C@@H]12 [Monoammonium glycyrrhizinate],3.67%
11,CC1CCCCCCCCCCCCC(=O)C1 (stereo not drawn) [Muscone],5.37%
12,CC(=O)[C@H]1CC[C@H]2[C@@H]3CC=C4C[C@@H](O)CC[C@]4(C)[C@H]3CC[C@]12C [Pregnenolone],32.6%
13,OC[C@@H](O)[C@@H](O)CO [Erythritol],8.06%
14,COc1cc(C=CC(=O)O)cc(OC)c1O [Sinapinic Acid],-5.49%
15,COc1ccc2cc1Oc1ccc(cc1)C[C@H]1c3cc(c(OC)cc3CCN1C)Oc1c(OC)c(OC)cc3c1[C@H](C2)N(C)CC3 [Tetrandrine],34.5%
16,Cc1cccc2c3c(ccc12)C1=C(C(=O)C3=O)[C@@H](C)CO1 [Dihydrotanshinone I],83.3%
17,CC12CCC(CC1)C(C)(C)O2 [Eucalyptol],-8.53%
18,COc1ccc(-c2oc3cc(O)cc(O)c3c(=O)c2O)cc1 [kaempferide],18.9%

# In a second layout: 2 of the compounds above.
row	Structure (SMILES)	cell growth inhibition ratio
15	COc1ccc2cc1Oc1ccc(cc1)C[C@H]1c3cc(c(OC)cc3CCN1C)Oc1c(OC)c(OC)cc3c1[C@H](C2)N(C)CC3 [Tetrandrine]	34.5%
16	Cc1cccc2c3c(ccc12)C1=C(C(=O)C3=O)[C@@H](C)CO1 [Dihydrotanshinone I]	83.3%
